According to paper doi:10.1101/2024.09.30.615192:
Results are given in words; binding and its absence hold for the method and conditions named. Binding seen in cells or lysates may run through a third protein. Here binding means that the protein was enriched with, or labelled near, the bait; the list need not be complete.

Protein sequences, listed by entry. Tags and fused reporters are not part of them. Residues count along the entry.
UniProt P35613, residues 22-385: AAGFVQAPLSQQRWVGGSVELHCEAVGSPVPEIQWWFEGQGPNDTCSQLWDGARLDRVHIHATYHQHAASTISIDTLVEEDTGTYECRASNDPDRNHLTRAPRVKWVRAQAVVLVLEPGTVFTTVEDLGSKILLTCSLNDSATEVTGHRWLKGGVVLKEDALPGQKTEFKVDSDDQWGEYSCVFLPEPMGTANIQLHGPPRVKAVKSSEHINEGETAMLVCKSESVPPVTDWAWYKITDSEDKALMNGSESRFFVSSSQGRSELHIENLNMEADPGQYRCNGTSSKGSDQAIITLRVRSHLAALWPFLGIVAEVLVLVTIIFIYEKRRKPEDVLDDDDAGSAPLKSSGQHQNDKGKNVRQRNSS

Key:
Experiment in all cases: affinity purification with mass spectrometry
SLC19A1 (human) = target: T1, SLC19A1 (human) (UniProt P41440)
T1 sequence: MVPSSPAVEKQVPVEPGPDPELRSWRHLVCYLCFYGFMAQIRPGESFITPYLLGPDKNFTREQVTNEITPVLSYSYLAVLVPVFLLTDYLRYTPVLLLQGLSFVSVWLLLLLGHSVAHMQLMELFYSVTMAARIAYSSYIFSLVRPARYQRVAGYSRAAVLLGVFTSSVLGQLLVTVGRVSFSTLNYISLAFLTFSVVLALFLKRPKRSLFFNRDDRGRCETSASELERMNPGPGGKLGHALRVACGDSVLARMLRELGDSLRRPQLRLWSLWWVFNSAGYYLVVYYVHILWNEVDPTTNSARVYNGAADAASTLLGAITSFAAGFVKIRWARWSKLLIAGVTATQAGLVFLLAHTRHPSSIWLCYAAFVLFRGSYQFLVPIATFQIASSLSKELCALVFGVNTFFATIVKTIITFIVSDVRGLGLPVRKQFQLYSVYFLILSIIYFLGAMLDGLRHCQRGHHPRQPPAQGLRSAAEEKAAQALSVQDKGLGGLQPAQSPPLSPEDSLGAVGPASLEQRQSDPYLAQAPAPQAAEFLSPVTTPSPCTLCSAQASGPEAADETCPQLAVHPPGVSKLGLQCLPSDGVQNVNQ

SLC16A7 (human) = target: T2, SLC16A7 (human) (UniProt O60669)
T2 sequence: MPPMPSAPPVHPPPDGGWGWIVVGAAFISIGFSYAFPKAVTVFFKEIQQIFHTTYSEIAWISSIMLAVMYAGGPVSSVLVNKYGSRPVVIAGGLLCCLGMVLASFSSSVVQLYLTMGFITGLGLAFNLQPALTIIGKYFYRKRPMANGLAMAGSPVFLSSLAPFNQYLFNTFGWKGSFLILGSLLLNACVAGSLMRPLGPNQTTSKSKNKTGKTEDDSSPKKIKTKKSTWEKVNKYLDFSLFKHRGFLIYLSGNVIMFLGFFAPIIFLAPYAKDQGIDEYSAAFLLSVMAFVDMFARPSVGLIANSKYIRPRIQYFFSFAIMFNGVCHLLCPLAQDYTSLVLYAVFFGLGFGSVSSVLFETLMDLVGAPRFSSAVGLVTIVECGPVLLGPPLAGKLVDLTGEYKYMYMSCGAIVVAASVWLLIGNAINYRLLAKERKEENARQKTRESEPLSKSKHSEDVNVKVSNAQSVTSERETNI

SLCO1B3 (human) = target: T3, SLCO1B3 (human) (UniProt Q9NPD5)
T3 sequence: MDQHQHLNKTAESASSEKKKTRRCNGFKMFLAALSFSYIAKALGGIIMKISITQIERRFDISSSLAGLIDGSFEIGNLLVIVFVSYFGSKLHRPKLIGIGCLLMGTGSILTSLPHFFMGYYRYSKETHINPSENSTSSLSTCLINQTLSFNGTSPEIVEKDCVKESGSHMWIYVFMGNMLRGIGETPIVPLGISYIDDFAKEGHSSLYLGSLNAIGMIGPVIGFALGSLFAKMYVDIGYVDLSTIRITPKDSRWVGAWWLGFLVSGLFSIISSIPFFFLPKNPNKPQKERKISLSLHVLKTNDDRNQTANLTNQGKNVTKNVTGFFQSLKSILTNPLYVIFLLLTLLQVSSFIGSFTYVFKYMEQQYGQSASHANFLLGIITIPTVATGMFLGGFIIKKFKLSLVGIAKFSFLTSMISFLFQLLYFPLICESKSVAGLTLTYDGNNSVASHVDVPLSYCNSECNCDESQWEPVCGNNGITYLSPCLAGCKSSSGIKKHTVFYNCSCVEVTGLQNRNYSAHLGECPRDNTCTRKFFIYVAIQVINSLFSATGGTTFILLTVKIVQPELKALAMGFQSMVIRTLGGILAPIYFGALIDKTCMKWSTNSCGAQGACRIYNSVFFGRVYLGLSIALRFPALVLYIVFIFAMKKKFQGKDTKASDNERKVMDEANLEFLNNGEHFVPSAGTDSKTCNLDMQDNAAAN

- binding (SLC19A1 (human)): binds
- binding (SLC16A7 (human)): binds
- binding (SLCO1B3 (human)): binds
Substance: Basigin (from UniProt P35613 22-385)
